In article PMC12778051:
Substitutions are numbered along the chain they refer to. These are yes or no findings as the source states them, for the method shown. In cells and extracts the contact can be indirect. For some of these results: A result given as binding can be weak or reduced; the word gives no strength. Where a sequence is shown, tags or fusion partners need not be part of it.

T1: Myc-LUBEL^1-872 (Drosophila melanogaster) (UniProt Q8IPJ3)
T1 sequence: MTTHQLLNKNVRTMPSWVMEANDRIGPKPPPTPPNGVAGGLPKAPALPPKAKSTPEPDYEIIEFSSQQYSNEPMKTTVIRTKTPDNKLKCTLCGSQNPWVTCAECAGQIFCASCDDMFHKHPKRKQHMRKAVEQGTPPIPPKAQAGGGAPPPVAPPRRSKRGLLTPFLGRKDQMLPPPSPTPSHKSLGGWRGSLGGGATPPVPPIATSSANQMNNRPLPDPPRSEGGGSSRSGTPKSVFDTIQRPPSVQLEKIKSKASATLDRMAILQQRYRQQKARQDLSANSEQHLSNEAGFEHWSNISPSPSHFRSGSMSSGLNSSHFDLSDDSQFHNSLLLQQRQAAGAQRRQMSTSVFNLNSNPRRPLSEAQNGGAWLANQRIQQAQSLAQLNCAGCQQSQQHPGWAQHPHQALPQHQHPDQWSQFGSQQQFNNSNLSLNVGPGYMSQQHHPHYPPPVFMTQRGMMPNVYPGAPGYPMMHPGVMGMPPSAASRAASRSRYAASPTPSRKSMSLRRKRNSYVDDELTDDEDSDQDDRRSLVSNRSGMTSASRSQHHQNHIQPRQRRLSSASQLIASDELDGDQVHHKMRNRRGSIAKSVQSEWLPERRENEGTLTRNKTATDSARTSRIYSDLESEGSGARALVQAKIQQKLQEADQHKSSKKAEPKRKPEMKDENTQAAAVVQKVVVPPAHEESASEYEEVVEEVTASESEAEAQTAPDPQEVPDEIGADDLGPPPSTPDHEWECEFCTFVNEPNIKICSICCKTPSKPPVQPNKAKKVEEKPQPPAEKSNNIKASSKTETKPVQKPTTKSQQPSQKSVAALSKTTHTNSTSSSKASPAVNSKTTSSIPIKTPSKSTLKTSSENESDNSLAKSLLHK

T2: Myc-LUBEL^1-872 R157A (Drosophila melanogaster) (UniProt Q8IPJ3)
T2 sequence: T1 sequence with R157A

B1: LUBEL^1-872 (as used in the GST pull-down) (domain or fragment, UniProt Q8IPJ3 1-872)
chain: T1 sequence

Assays:
[1] = target: T1, Myc-LUBEL^1-872 (Drosophila melanogaster); assay: co-IP; Myc-LUBEL^1-872 (wild-type or R157A) and Amph isoform C-HA coexpressed in S2 cells; anti-Myc IP, immunoblot with anti-Myc and anti-HA
[2] = target: T2, Myc-LUBEL^1-872 R157A (Drosophila melanogaster); assay: as above
[3] = target: GST-Amph BAR domain (Drosophila melanogaster); assay: pull-down; GST-fused Amph fragments on glutathione agarose incubated with lysate for 90 min at 4°C; lysis buffer 1% NP-40, 1 mM EDTA, 20 mM tris-HCl pH 7.4, 150 mM NaCl; only the target purified
[4] = target: GST-Amph SH3 domain (Drosophila melanogaster); assay: as above

| Molecule | binding [1] | binding [2] | binding [3] | binding [4] |
| --- | --- | --- | --- | --- |
| Amph isoform C-HA (Drosophila melanogaster) | binds | no binding |  |  |
| B1 |  |  | no binding | binds |
